For at least one compound, name, drawing or mass did not settle the structure.
System: H-Ras in H-Ras-F cells
Experiment: Subcellular fractionation / Western blot of Ras in lovastatin-treated H-Ras-F cells
Assay type: cell-based
Conditions: 25 μM lovastatin 24 h, then analog 24 h
Protocol: Following an additional 24 h incubation period, the cells were harvested, lysed and the membranes (M) separated from the cytosol (C). After solubilization of the membrane fraction, Ras protein was immunoprecipitated from both the membrane and cytosolic fractions by the addition of the Y13-259 antibody (OP04 from Oncogene Science). The presence of Ras protein in each fraction was analyzed by Western transfer techniques. Incubation with the primary antibody (pan-ras Ab-2 from Oncogene Science) and an anti-mouse HRP conjugate secondary antibody (Amersham) was employed for detection of the ras protein. Blots were developed using Enhanced Chemiluminescence techniques (Amersham). The technique is described in detail by Scholten, et al., Bioorg. Med. Chem., Vol. 4, pages 1537-1543 (1992).
The results are shown in FIGS. 6 and 7 which are Western blots of the H-Ras-F and H-Ras-GG experiments, respectively. H-Ras-F cells were treated with lovastatin in order to block the mevalonate pathway, prevent the formation of FPP and GGPP, and thus, inhibit protein prenylation.

Which “Subcellular location of H-Ras (membrane vs cytosol)” value does the source give for `CC(C)=CCC/C(C)=C/CC/C(C)=C/CO[P@@](=O)(O)OP(=O)(O)O` (stereo in doubt) [FPP, farnesyl diphosphate, reference compound] here?
The value was “shift is significantly reversed”.
